Results taken from PMC12551952.
Results are given in words; binding and its absence hold for the method and conditions named. In cells and extracts the contact can be indirect. Some results given as binding are weak or reduced against the parent protein; the word gives no strength. For part of these data: Sequences can lack the tags named with a protein.

The chains behind the UniProt entries cited, without tags or fusion partners. Where a name states a change or a piece, a line headed by the entry shows the natural chain unless it says otherwise. A line that says so, or that is headed by a name, gives the form on record, which may keep a tag or linker.
UniProt Q9D4K7: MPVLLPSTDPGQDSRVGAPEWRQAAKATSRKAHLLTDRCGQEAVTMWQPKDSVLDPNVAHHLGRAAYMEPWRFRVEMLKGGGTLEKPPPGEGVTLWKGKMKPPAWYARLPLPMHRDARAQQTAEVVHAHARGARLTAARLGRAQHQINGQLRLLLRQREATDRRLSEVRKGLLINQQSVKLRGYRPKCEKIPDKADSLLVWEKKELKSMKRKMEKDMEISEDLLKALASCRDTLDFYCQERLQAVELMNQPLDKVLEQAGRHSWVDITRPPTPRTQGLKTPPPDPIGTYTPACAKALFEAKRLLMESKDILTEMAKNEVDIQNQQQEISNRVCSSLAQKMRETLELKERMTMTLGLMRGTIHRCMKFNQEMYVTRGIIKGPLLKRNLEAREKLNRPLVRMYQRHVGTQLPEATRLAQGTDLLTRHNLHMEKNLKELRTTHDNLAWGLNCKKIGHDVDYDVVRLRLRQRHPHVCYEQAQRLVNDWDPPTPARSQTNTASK
HA-tagged WT-CFAP77 (A0A087WRI3-2, form named): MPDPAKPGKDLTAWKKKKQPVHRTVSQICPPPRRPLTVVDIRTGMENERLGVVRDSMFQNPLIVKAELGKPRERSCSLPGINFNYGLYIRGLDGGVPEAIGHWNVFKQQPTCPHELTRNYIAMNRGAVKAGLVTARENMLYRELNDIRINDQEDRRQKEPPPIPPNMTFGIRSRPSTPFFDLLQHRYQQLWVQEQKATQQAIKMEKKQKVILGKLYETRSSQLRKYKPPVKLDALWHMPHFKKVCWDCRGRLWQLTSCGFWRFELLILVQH

Legend:
[1] = molecular target: FLAG-tagged WT-CCDC105 (mouse) (UniProt Q9D4K7); test: co-IP; HEK293T cells co-transfected with FLAG-, MYC- and/or HA-tagged plasmids, lysed 48 h later in Pierce IP Lysis Buffer; lysates incubated overnight with FLAG antibody at 4°C, then Protein A/G agarose for 4 h; five washes; Western blot with anti-FLAG, anti-MYC or anti-HA
[2] = molecular target: T1, FLAG-tagged TEX43 (mouse) (UniProt Q9D9I1); test: as above
T1 sequence: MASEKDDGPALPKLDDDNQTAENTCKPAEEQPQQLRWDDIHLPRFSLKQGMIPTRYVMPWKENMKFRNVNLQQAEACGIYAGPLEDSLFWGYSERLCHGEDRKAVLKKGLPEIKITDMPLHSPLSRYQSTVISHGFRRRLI

Substance | binding [1] | binding [2]
MYC-tagged CFAP77 (from UniProt A0A087WRI3-2 1-271) | binds | no binding
HA-tagged WT-CFAP77 (from UniProt A0A087WRI3-2 1-271) | binds | 
